In patent US20260250378A1:
Results are given in words; binding and its absence hold for the method and conditions named. Some binding calls cover weakened binding; strength is not graded here.

By UniProt entry, the sequences of proteins in these tests, tags left out. Residues count along the entry.
UniProt P27824, residues 21-481: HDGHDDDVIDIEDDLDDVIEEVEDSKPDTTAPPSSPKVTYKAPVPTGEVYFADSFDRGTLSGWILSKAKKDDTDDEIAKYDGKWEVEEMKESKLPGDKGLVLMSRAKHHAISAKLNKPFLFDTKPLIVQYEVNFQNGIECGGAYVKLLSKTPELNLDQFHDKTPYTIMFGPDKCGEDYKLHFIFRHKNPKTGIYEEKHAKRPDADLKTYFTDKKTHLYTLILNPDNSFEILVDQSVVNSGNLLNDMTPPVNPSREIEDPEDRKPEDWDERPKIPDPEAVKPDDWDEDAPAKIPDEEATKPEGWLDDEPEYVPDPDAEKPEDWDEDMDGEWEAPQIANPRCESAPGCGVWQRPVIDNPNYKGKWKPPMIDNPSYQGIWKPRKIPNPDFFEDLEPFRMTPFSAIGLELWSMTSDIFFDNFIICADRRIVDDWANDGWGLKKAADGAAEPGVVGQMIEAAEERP

Legend:
[1] = molecular target: CNX-his antigen (Genscript) (human) (UniProt P27824); assay: ELISA, legend of FIG. 56
[2] = molecular target: CNX-his antigen (Genscript) (human) (UniProt P27824); assay: ELISA with serial dilutions, legend of FIG. 57
[3] = molecular target: CNX-his antigen (Genscript) (human) (UniProt P27824); assay: ELISA, His-tagged human CNX coated, antibody at 10 µg/ml
[4] = molecular target: CNX-his antigen (Genscript) (human) (UniProt P27824); assay: ELISA, His-tagged human CNX coated on wells, BSA-coated control wells
[5] = molecular target: CNX-his antigen (Genscript) (human) (UniProt P27824); assay: ELISA with serial dilutions of the antibody on coated His-tagged human CNX

binding [1]: binds
binding [2]: binds
binding [3]: binds
binding [4]: binds
binding [5]: binds
B1: monoclonal anti-CNX antibody clone 2G9 (antibody, V domains shown)
VH: QVTLKESGGGVVQPGRSLRLSCAASGFTFSSYGMHWVRQAPGKGLEWVAVISYDGSNKYYADSVKGRFTISRDNSKNTLYLQMNSLRAEDTAVYYCTQGRDYWGQGTLVTVSS
VL: QAVLTQPSSLSASPGASASLTCTLRSGINVGTYRIYWYQQKPGSPPQYLLRYKSDSDKQQGSGVPSRFSGSKDASANAGILLISGLQSEDEADYYCMIWHSSAWVFGGGTKLTVL
